Here are results for one molecule from patent US10251942B2, “Immunity-inducing agent” (TORAY INDUSTRIES, INC., priority 2009, dated 2019).

The test system of the data set is antibodies specifically reactive with the protein in serum. The data set is described as follows: ELISA of serum antibody titer against recombinant PDS5A protein for cancer diagnosis. The class given is binding, dog. The following applies: 112 patient dogs, 30 healthy dogs; cut-off not less than twice the average value in healthy dogs; 94 samples. How it is done: Blood was collected from 112 patient dogs wherein malignant tumor was found and 30 healthy dogs, and sera were separated therefrom. Using the canine PDS5A protein (SEQ ID NO:2) prepared in the above-described (2), the titer of antibodies specifically reactive with the protein in each serum was measured by the ELISA method. Immobilization of the prepared protein was carried out by placing 100 μL/well of the recombinant protein solution diluted to 5 μg/mL with phosphate-buffered saline in a 96-well Immobilizer Amino plate (manufactured by Nunc), followed by leaving the plate to stand at 4° C. overnight. Blocking was carried out by adding 100 μL of 50 mM sodium bicarbonate buffer (pH 8.4) supplemented with 3% BSA (bovine serum albumin, manufactured by Sigma-Aldrich Co.) (hereinafter referred to as the blocking solution) to each well and shaking the plate at room temperature for 1 hour. The sera were 1000-fold diluted with the blocking solution and added to the wells in an amount of 100 μL/well, and the plate was shaken at room temperature for 3 hours to allow the reaction to proceed. […] Thereafter, 100 μl/well of 0.5 M sulfuric acid solution (manufactured by Sigma-Aldrich Japan) was added to the wells to stop the reaction, and the absorbance at 450 nm was measured using a microplate reader. […]

B1: canine recombinant PDS5A protein: full-length canine PDS5A (SEQ ID NO:2) expressed in E. coli; given mixed with Freund's incomplete adjuvant (protein, listed as Canis familiaris)
chain: MDFTAQPKPATALCGVVSADGKIAYPPGVKEITDKITTDEMIKRLKMVVKTFMDMDQDSEDEKQQYLPLALHLASEFFLRNPNKDVRLLVACCLADIFRIYAPEAPYTSHDKLKDIFLFITRQLKGLEDTKSPQFNRYFYLLENLAWVKSYNICFELEDCNEIFIQLFRTLFSVINNSHNKKVQMHMLDLMSSIIMEGDGVTQELLDSILINLIPAHKNLNKQSFDLAKVLLKRTVQTIEACIANFFNQVLVLGRSSVSDLSEHVFDLIQELFAIDPHLLLSVMPQLEFKLKSNDGEERLAVVRLLAKLFGSKDSDLATQNRPLWQCFLGRFNDIHVPVRLESVKFASHCLMNHPDLAKDLTEYLKVRSHDPEEAIRHDVIVTIITAAKRDLALVNDQLLGFVRERTLDKRWRVRKEAMMGLAQLYKKYCLHGEAGKEAAEKVSWIKDKLLHIYYQNSIDDKLLVEKIFAQYLVPHNLETEERMKCLYYLYASLDPNAVKALNEMWKCQNMLRSHVRELLDLHKQPTSEANCSAMFGKLMTIAKNLPDPGKAQDFVKKFNQVLGDDEKLRSQLELLISPTCSCKQADVCVREIARKLANPKQPTNPFLEMVKFLLERIAPVHIDSEAISALVKLMNKSIEGTADDEEEGVSPDTAIRSGLELLKVLSFTHPTSFHSAETYESLLQCLRMEDDKVAEAAIQIFRNTGHKIETDLPQIRSTLIPILHQKAKRGTPHQAKQAVHCIHAIFTNKEVQLAQIFEPLSRSLNADVPEQLITPLVSLGHISMLAPDQFASPMKSVVANFIVKDLLMNDRSTGEKNGKLWSPDEEVSPEVLAKVQAIKLLVRWLLGMKNNQSKSANSTLRLLSAMLVSEGDLTEQKRISKSDMSRLRLAAGSAIMKLAQEPCYHEIITPEQFQLCALVINDECYQVRQIFAQKLHKALVKLLLPLEYMAIFALCAKDPVKERRAHARQCLLKNISIRREYIKQNPMATEKLLSLLPEYVVPYMIHLLAHDPDFTRSQDVDQLRDIKECLWFMLEVLMTKNENNSHAFMKKMAENIKLTKDAQSPDESKMNEKLYTVCDVALCVINSKSALCNADSPKDPVLPMKFFTQPEKDFCNDKSYISEETRVLLLTGKPKPAGVLGAVNKPLSATGRKPYVRSTGAETGSNINVNSELNPSTGNRSREQSSEAVETGVSENEENPVRIISVTPVKNIDPVKNKEINSDQTTQGNISSDRGKKRSVAAAGTENIQQKTDEKVDESGPPAPSKPRRGRRPKSESQGNATKNDDINKPLGKGRKRAAVSQESPGGLEAGNAKAPKLQDVAKKAVPAERQIDLQR
modifications: mixed with Freund's incomplete adjuvant
Turning to B1, the “malignant cases successfully diagnosed as malignant” value amounted to 83.9%.
